For some of these results: For expression read-outs the peptide stands for its source gene, whose mRNA was measured; the gene is not named for every peptide.
Columns and labels:
source genes (mRNA) [1] = assay: Gene and exon expression of source genes, TCGA tumor samples compared with normal tissue samples (Lonsdale, 2013) (Table 17); parameters: species or system human; conditions: for Over-expression category of source gene (target coverage), BLCA: BLCA = Bladder urothelial carcinoma (N = 408); for Over-expression category of source gene (target coverage), BRCA: BRCA = Breast cancer (N = 1104), tumors more than 2-fold above highest 75% percentile of normal tissues; for Over-expression category of source gene (target coverage), CHOL: CHOL = Cholangiocarcinoma (N = 36); for Over-expression category of source gene (target coverage), COAD: COAD = Colon and rectal adenocarcinoma (N = 462); for Over-expression category of source gene (target coverage), ESCA: ESCA = Esophageal cancer (N = 185); for Over-expression category of source gene (target coverage), GBM: GBM = Glioblastoma multiforme (N = 169); for Over-expression category of source gene (target coverage), LAML: LAML = Acute Myeloid Leukemia (N = 173); for Over-expression category of source gene (target coverage), LGG: LGG = Lower grade glioma (N = 534); for Over-expression category of source gene (target coverage), LUAD: LUAD = Lung adenocarcinoma (N = 517); for Over-expression category of source gene (target coverage), LUSC: LUSC = Lung squamous cell carcinoma (N = 503); for Over-expression category of source gene (target coverage), OV: OV = Ovarian serous cystadenocarcinoma (N = 309); for Over-expression category of source gene (target coverage), PRAD: PRAD = Prostate adenocarcinoma (N = 498); for Over-expression category of source gene (target coverage), READ: READ = Colon and rectal adenocarcinoma (N = 167); for Over-expression category of source gene (target coverage), SKCM: SKCM = Skin cutaneous melanoma (N = 473); for Over-expression category of source gene (target coverage), STAD: STAD = Stomach adenocarcinoma (N = 415)
HLA-A*24 = assay: Identification and relative LC-MS quantitation of HLA-A*24-presented tumor-associated peptides on tissue samples (presentation profiles, Tables 14A, 14B, 16, FIG. 1); parameters: species or system human; key to Presentation score GC / Presentation score NSCLC / Presentation score PCA / Presentation score GB / Presentation score HCC / Presentation score RCC: specifically presented on tumors (++++); very highly over-presented on tumors compared to a panel of normal tissues (+++); highly over-presented on tumors compared to a panel of normal tissues (++); over-presented on tumors compared to a panel of normal tissues (+); conditions: for Presentation score GC: gastric cancer (N = 44) vs panel of normal tissues (N = 70); for Presentation score GB: glioblastoma (N = 18) vs panel of normal tissues (N = 70); for Presentation score HCC: hepatocellular carcinoma (N = 15) vs panel of normal tissues (N = 70); for Presentation score NSCLC: non-small cell lung cancer (N = 91) vs panel of normal tissues (N = 70); for Presentation score PCA: prostate cancer (N = 40) vs panel of normal tissues (N = 70)
source genes (mRNA) [2] = assay: Expression profiling of source genes by in-house RNASeq of tumor and normal tissues (Table 18, FIG. 2); parameters: species or system human; key: very highly over-expressed in tumors compared to a panel of normal tissues (+++); highly over-expressed in tumors compared to a panel of normal tissues (++); over-expressed in tumors compared to a panel of normal tissues (+); conditions: source gene of peptide
[3] = Table 14A, HLA-A*24-binding tumor-associated peptides, cancer entities on which the peptide was found presented

Row | Substance | Over-expression category of source gene (target coverage), BLCA (source genes (mRNA) [1]; same cutoff) | Over-expression category of source gene (target coverage), BRCA (source genes (mRNA) [1]) | Over-expression category of source gene (target coverage), CHOL (source genes (mRNA) [1]; same cutoff) | Over-expression category of source gene (target coverage), COAD (source genes (mRNA) [1]; same cutoff) | Over-expression category of source gene (target coverage), ESCA (source genes (mRNA) [1]; same cutoff) | Over-expression category of source gene (target coverage), GBM (source genes (mRNA) [1]; same cutoff) | Over-expression category of source gene (target coverage), LAML (source genes (mRNA) [1]; same cutoff) | Over-expression category of source gene (target coverage), LGG (source genes (mRNA) [1]; same cutoff) | Over-expression category of source gene (target coverage), LUAD (source genes (mRNA) [1]; same cutoff) | Over-expression category of source gene (target coverage), LUSC (source genes (mRNA) [1]; same cutoff) | Over-expression category of source gene (target coverage), OV (source genes (mRNA) [1]; same cutoff) | Over-expression category of source gene (target coverage), PRAD (source genes (mRNA) [1]; same cutoff) | Over-expression category of source gene (target coverage), READ (source genes (mRNA) [1]; same cutoff) | Over-expression category of source gene (target coverage), SKCM (source genes (mRNA) [1]; same cutoff) | Over-expression category of source gene (target coverage), STAD (source genes (mRNA) [1]; same cutoff) | Presentation score GC (HLA-A*24; HLA-A*24 peptides) | Presentation score GB (HLA-A*24; HLA-A*24 peptides) | Presentation score HCC (HLA-A*24; HLA-A*24 peptides) | Presentation score NSCLC (HLA-A*24; HLA-A*24 peptides) | Peptide Presentation on cancer entities (HLA-A*24; [3]) | further results
1 | 158: peptide found in PRKDC (gene looked up) (HYSQELSLLYL; listed as Homo sapiens) [compound 158] | B (>= 20% of tumors above the cutoff, but <50%) | A (>=50% of tumors above the cutoff) | C (>=5% of tumors above the cutoff, but <20%) | B (>= 20% of tumors above the cutoff, but <50%) | A (>=50% of tumors above the cutoff) | C (>=5% of tumors above the cutoff, but <20%) | A (>=50% of tumors above the cutoff) | C (>=5% of tumors above the cutoff, but <20%) | B (>= 20% of tumors above the cutoff, but <50%) | A (>=50% of tumors above the cutoff) | C (>=5% of tumors above the cutoff, but <20%) | C (>=5% of tumors above the cutoff, but <20%) | B (>= 20% of tumors above the cutoff, but <50%) | A (>=50% of tumors above the cutoff) | B (>= 20% of tumors above the cutoff, but <50%) | ++++ | ++++ | ++++ | ++++ | GB, GC, NSCLC, HCC, PCA, RCC | Over-expression category of source gene (target coverage), DLBC (source genes (mRNA) [1]; DLBC = Lymphoid neoplasm diffuse large B-cell lymphoma (N = 48), same cutoff): C (>=5% of tumors above the cutoff, but <20%); Over-expression category of source gene (target coverage), UCEC (source genes (mRNA) [1]; UCEC = Uterine corpus endometrial carcinoma (N = 546), same cutoff): C (>=5% of tumors above the cutoff, but <20%); number of cancer tissues where the peptide was found to be presented (HLA-A*24; FIG. 1, A*24 positive samples, only samples with presentation shown): 19; Presentation score PCA (HLA-A*24; HLA-A*24 peptides): ++++; Presentation score RCC (HLA-A*24; HLA-A*24 peptides, renal cell carcinoma (N = 2) vs panel of normal tissues (N = 70)): ++++; Expression score BRCA (source genes (mRNA) [2]; BRCA tumors vs panel of normal tissues): +; Expression score CRC (source genes (mRNA) [2]; colorectal cancer (N = 20) vs panel of normal tissues): +; Expression score OSCAR (source genes (mRNA) [2]; esophageal cancer incl. gastric-esophageal junction (N = 11) vs panel of normal tissues): +; Expression score GB (source genes (mRNA) [2]; glioblastoma (N = 24) vs panel of normal tissues): +; Expression score NHL (source genes (mRNA) [2]; non-Hodgkin lymphoma (N = 10) vs panel of normal tissues): +; Expression score NSCLC (source genes (mRNA) [2]; non-small cell lung cancer (N = 11) vs panel of normal tissues): +; Expression score OC (source genes (mRNA) [2]; ovarian cancer (N = 12) vs panel of normal tissues): +; Expression score SCLC (source genes (mRNA) [2]; small cell lung cancer (N = 10) vs panel of normal tissues): +
2 | 212: peptide found in FBXO3 (gene looked up) (YYTFHFLYF; listed as Homo sapiens) [compound 212] | C (>=5% of tumors above the cutoff, but <20%) | A (>=50% of tumors above the cutoff) | B (>= 20% of tumors above the cutoff, but <50%) | C (>=5% of tumors above the cutoff, but <20%) | B (>= 20% of tumors above the cutoff, but <50%) | A (>=50% of tumors above the cutoff) | C (>=5% of tumors above the cutoff, but <20%) | B (>= 20% of tumors above the cutoff, but <50%) | C (>=5% of tumors above the cutoff, but <20%) | B (>= 20% of tumors above the cutoff, but <50%) | B (>= 20% of tumors above the cutoff, but <50%) | B (>= 20% of tumors above the cutoff, but <50%) | B (>= 20% of tumors above the cutoff, but <50%) | C (>=5% of tumors above the cutoff, but <20%) | B (>= 20% of tumors above the cutoff, but <50%) | +++ |  | +++ | +++ | GC, NSCLC, HCC | Over-expression category of source gene (target coverage), KICH (source genes (mRNA) [1]; KICH = Kidney chromophobe (N = 66), same cutoff): B (>= 20% of tumors above the cutoff, but <50%); Over-expression category of source gene (target coverage), KIRC (source genes (mRNA) [1]; KIRC = Clear cell kidney carcinoma (N = 534), same cutoff): A (>=50% of tumors above the cutoff); Over-expression category of source gene (target coverage), KIRP (source genes (mRNA) [1]; KIRP = Papillary kidney carcinoma (N = 291), same cutoff): B (>= 20% of tumors above the cutoff, but <50%); Over-expression category of source gene (target coverage), PAAD (source genes (mRNA) [1]; PAAD = Pancreatic ductal adenocarcinoma (N = 179), same cutoff): C (>=5% of tumors above the cutoff, but <20%); Peptide Presentation on cancer entities (HLA-A*24; HLA-A*24-binding peptides, additional cancer entities, GB = glioblastoma, HCC = hepatocellular carcinoma, NSCLC = non-small cell lung cancer, PCA = prostate cancer): PCA
3 | 228: peptide found in FGF2 (gene looked up) (KYTSWYVAL; listed as Homo sapiens) [compound 228] |  |  |  |  |  |  |  |  |  |  |  |  |  |  |  |  | ++ |  |  | GB, PCA | Target coverage: over-expression category of source gene, BRCA (source genes (mRNA) [1]; Breast cancer (N = 1104), tumor expression more than 2-fold above highest 75% percentile of high and medium risk normal tissues): C (>=5% of tumors above the cutoff, but <20%); Target coverage: over-expression category of source gene, KIRC (source genes (mRNA) [1]; Clear cell kidney carcinoma (N = 534), tumor expression more than 2-fold above highest 75% percentile of high and medium risk normal tissues): C (>=5% of tumors above the cutoff, but <20%); Target coverage: over-expression category of source gene, GBM (source genes (mRNA) [1]; Glioblastoma multiforme (N = 169), tumor expression more than 2-fold above highest 75% percentile of high and medium risk normal tissues): B (>= 20% of tumors above the cutoff, but <50%); Target coverage: over-expression category of source gene, KICH (source genes (mRNA) [1]; Kidney chromophobe (N = 66), tumor expression more than 2-fold above highest 75% percentile of high and medium risk normal tissues): C (>=5% of tumors above the cutoff, but <20%); Target coverage: over-expression category of source gene, LGG (source genes (mRNA) [1]; Lower grade glioma (N = 534), tumor expression more than 2-fold above highest 75% percentile of high and medium risk normal tissues): A (>=50% of tumors above the cutoff); Target coverage: over-expression category of source gene, LUSC (source genes (mRNA) [1]; Lung squamous cell carcinoma (N = 503), tumor expression more than 2-fold above highest 75% percentile of high and medium risk normal tissues): C (>=5% of tumors above the cutoff, but <20%); Target coverage: over-expression category of source gene, PAAD (source genes (mRNA) [1]; Pancreatic ductal adenocarcinoma (N = 179), tumor expression more than 2-fold above highest 75% percentile of high and medium risk normal tissues): C (>=5% of tumors above the cutoff, but <20%); Target coverage: over-expression category of source gene, KIRP (source genes (mRNA) [1]; Papillary kidney carcinoma (N = 291), tumor expression more than 2-fold above highest 75% percentile of high and medium risk normal tissues): C (>=5% of tumors above the cutoff, but <20%); Target coverage: over-expression category of source gene, SKCM (source genes (mRNA) [1]; Skin cutaneous melanoma (N = 473), tumor expression more than 2-fold above highest 75% percentile of high and medium risk normal tissues): C (>=5% of tumors above the cutoff, but <20%); Target coverage: over-expression category of source gene, STAD (source genes (mRNA) [1]; Stomach adenocarcinoma (N = 415), tumor expression more than 2-fold above highest 75% percentile of high and medium risk normal tissues): C (>=5% of tumors above the cutoff, but <20%); Presentation score PCA (HLA-A*24; HLA-A*24 peptides): +
4 | 301: peptide found in AIFM2 (gene looked up) (AYKPGALTF; listed as Homo sapiens) [compound 301] |  |  |  |  |  |  |  |  |  |  |  |  |  |  |  |  |  | ++++ | ++++ | NSCLC, HCC | Target coverage: over-expression category of source gene, COAD (source genes (mRNA) [1]; Colon and rectal adenocarcinoma (N = 462), tumor expression more than 2-fold above highest 75% percentile of high and medium risk normal tissues): C (>=5% of tumors above the cutoff, but <20%); Target coverage: over-expression category of source gene, LIHC (source genes (mRNA) [1]; Liver hepatocellular carcinoma (N = 374), tumor expression more than 2-fold above highest 75% percentile of high and medium risk normal tissues): C (>=5% of tumors above the cutoff, but <20%); Target coverage: over-expression category of source gene, UCEC (source genes (mRNA) [1]; Uterine corpus endometrial carcinoma (N = 546), tumor expression more than 2-fold above highest 75% percentile of high and medium risk normal tissues): C (>=5% of tumors above the cutoff, but <20%)

From US20170189504A1, “NOVEL PEPTIDES AND COMBINATION OF PEPTIDES FOR USE IN IMMUNOTHERAPY AGAINST VARIOUS CANCERS” (immatics biotechnologies GmbH, priority 2015, published 2017)
